Results taken from patent publication US20190225985A1, “Enhancing Bacillus Thuringiensis CRY Insecticidal Activity With a Chaperone” (Universidad Nacional Autónoma de México, priority 2016, published 2019).

Tested on: trypsin
Assay: Proteolysis experiments: protoxin treated with trypsin in the presence of Hsp90 or BSA, Western blot
Assay type: biochemical
Conditions: 1 μg protoxin, 5 ng trypsin, in the presence of Hsp90 versus albumin

Cry1Ab
stability of 130 kDa protoxin to trypsin treatment: more stable to treatment with trypsin
